Results taken from patent US20130045891A1.
These are yes or no findings as the source states them, for the method shown. Some results given as binding are weak or reduced against the parent protein; the word gives no strength.

Assays:
[1] = biological target: P. alba isoprene synthase MEA G491S (+)TEV, from pDW100, expressed in strain DW398 (Populus alba) (UniProt Q50L36); assay: X-ray crystal structure, 2.6 Å
[2] = biological target: P. alba isoprene synthase MEA G491S (+)TEV, from pDW100, expressed in strain DW398 (Populus alba) (UniProt Q50L36); assay: X-ray crystallography, 2.6 Å, molecular replacement
[3] = biological target: P. alba isoprene synthase MEA G491S (+)TEV, from pDW100, expressed in strain DW398 (Populus alba) (UniProt Q50L36); assay: X-ray crystal structure

Measured: binding

B1: P. alba isoprene synthase MEA G491S (+)TEV, from pDW100, expressed in strain DW398 (enzyme)
chain: MEARRSANYEPNSWDYDYLLSSDTDESIEVYKDKAKKLEAEVRREINNEKAEFLTLLELIDNVQRLGLGYRFESDIRGALDRFVSSGGFDAVTKTSLHGTALSFRLLRQHGFEVSQEAFSGFKDQNGNFLENLKEDIKAILSLYEASFLALEGENILDEAKVFAISHLKELSEEKIGKELAEQVNHALELPLHRRTQRLEAVWSIEAYRKKEDANQVLLELAILDYNMIQSVYQRDLRETSRWWRRVGLATKLHFARDRLIESFYWAVGVAFEPQYSDCRNSVAKMFSFVTIIDDIYDVYGTLDELELFTDAVERWDVNAINDLPDYMKLCFLALYNTINEIAYDNLKDKGENILPYLTKAWADLCNAFLQEAKWLYNKSTPTFDDYFGNAWKSSSGPLQLVFAYFAVVQNIKKEEIENLQKYHDTISRPSHIFRLCNDLASASAEIARGETANSVSCYMRTKGISEELATESVMNLIDETWKKMNKEKLSGSLFAKPFVETAINLARQSHCTYHNGDAHTSPDELTRKRVLSVITEPILPFERENLYFQ
binds: all assays above
